We go through eight molecules from PMC10954485.

The chains behind the UniProt entries cited, without tags or fusion partners. Residues count along the entry.
UniProt P70302, residues 23-685: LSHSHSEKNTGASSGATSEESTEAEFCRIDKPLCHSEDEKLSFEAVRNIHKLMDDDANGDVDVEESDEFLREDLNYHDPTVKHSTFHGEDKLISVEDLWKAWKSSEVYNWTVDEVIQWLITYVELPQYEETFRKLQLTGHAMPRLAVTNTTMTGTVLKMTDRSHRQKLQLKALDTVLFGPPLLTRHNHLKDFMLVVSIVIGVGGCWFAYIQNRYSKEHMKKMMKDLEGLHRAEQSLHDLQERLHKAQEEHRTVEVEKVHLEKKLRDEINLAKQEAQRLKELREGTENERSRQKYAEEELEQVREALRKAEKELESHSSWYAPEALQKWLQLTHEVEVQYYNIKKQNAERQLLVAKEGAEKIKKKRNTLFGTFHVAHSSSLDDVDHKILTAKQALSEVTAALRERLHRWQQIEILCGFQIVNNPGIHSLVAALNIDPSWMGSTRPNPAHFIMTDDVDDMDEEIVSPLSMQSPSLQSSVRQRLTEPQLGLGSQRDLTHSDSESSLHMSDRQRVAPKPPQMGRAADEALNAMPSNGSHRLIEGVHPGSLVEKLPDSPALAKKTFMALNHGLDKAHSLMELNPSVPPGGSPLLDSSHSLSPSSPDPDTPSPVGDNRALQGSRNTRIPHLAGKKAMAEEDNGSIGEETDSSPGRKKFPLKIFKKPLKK
UniProt Q9NVI1: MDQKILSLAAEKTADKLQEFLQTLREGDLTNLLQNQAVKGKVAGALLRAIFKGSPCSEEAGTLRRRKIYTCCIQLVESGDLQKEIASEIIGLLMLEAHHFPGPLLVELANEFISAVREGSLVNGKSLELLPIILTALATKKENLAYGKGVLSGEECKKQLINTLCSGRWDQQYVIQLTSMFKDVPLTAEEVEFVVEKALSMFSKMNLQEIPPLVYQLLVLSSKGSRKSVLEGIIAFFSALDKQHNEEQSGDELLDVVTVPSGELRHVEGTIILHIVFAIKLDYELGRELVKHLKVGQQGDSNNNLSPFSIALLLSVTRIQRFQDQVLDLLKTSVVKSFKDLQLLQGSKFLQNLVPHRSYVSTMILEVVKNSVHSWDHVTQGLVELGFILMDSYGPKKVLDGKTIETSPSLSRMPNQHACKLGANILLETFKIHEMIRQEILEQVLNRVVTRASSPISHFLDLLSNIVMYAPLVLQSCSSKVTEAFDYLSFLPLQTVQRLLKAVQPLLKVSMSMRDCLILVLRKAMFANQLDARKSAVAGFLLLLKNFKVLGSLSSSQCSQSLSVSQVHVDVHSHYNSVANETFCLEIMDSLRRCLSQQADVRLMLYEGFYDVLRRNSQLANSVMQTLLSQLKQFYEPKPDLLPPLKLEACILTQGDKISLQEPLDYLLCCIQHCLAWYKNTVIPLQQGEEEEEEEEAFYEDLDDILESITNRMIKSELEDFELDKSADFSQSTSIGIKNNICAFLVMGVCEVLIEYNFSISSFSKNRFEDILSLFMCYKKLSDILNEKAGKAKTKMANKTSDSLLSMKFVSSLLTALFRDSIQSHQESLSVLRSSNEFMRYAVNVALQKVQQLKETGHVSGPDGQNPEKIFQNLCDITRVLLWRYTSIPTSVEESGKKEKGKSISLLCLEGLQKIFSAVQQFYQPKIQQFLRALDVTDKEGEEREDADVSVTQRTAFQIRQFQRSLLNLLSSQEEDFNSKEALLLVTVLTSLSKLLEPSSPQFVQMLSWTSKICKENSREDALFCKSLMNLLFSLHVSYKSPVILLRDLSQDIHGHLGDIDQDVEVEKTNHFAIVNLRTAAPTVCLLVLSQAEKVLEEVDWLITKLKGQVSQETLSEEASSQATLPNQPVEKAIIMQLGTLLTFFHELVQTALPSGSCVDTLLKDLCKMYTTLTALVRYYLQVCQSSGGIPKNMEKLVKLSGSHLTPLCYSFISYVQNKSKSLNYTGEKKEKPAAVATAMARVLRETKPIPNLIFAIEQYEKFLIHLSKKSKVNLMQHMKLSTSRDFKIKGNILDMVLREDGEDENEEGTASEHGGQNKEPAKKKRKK
UniProt Q9BXW9: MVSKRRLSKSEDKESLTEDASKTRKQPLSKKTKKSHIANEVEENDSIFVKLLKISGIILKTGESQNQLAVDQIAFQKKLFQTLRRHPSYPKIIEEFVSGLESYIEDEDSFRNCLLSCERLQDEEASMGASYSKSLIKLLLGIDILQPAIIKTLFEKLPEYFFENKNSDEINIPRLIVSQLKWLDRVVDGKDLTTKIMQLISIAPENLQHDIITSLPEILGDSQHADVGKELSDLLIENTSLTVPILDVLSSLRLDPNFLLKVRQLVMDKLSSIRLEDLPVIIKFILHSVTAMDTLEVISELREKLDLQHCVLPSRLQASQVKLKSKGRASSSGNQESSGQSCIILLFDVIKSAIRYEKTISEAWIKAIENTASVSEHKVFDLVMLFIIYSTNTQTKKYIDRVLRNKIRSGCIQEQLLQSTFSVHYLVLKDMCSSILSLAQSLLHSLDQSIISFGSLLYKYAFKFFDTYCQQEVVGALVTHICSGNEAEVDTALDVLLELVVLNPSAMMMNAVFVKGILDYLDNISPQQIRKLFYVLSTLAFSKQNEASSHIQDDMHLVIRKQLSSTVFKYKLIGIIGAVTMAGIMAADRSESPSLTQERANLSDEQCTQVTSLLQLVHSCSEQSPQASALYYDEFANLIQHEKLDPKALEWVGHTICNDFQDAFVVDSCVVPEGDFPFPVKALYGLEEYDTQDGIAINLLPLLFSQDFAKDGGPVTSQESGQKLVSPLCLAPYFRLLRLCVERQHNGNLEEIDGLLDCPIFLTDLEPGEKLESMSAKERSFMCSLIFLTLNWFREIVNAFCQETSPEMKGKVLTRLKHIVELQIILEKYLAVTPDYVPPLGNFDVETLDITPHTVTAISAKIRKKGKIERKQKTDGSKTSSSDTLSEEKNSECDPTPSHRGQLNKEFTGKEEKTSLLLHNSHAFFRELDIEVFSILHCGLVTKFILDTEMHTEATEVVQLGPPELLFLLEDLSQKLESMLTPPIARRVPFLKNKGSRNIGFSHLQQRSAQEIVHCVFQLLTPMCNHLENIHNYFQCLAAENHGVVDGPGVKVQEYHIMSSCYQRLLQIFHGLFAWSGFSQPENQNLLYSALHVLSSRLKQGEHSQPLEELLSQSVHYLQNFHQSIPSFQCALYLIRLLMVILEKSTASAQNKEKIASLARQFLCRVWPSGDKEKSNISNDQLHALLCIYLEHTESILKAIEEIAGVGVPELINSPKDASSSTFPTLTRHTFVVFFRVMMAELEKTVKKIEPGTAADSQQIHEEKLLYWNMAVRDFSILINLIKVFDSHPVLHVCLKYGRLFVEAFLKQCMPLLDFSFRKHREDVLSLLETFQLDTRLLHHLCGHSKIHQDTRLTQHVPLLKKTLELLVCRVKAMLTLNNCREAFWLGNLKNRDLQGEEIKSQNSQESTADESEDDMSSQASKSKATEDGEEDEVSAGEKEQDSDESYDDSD
UniProt O15397: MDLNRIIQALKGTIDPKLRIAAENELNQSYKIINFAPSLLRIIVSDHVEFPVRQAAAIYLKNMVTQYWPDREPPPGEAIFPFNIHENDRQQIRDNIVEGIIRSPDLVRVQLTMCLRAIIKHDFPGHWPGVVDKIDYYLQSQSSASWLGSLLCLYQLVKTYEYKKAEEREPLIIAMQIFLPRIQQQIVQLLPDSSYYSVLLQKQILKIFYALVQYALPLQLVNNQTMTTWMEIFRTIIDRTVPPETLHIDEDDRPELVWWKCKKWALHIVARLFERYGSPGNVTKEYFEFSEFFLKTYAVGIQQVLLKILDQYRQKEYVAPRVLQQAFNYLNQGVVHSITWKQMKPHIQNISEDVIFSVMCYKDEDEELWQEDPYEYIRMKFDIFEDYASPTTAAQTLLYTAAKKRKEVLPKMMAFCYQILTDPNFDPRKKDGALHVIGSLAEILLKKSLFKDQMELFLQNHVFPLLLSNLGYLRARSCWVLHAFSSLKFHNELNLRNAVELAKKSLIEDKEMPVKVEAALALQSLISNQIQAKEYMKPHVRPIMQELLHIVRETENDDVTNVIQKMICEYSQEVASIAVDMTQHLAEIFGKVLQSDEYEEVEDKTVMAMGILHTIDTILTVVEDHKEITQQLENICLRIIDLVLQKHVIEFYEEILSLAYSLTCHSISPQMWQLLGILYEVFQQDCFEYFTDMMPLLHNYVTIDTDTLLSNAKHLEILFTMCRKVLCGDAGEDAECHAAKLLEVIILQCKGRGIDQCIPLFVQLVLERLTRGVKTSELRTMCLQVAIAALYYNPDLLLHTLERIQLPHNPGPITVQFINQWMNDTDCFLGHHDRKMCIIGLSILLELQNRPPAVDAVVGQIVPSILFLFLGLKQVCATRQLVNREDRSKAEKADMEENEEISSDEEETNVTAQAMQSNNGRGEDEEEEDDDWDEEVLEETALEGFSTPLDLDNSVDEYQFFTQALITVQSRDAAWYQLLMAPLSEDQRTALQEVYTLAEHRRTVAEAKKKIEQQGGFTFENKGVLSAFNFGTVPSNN
UniProt O14980: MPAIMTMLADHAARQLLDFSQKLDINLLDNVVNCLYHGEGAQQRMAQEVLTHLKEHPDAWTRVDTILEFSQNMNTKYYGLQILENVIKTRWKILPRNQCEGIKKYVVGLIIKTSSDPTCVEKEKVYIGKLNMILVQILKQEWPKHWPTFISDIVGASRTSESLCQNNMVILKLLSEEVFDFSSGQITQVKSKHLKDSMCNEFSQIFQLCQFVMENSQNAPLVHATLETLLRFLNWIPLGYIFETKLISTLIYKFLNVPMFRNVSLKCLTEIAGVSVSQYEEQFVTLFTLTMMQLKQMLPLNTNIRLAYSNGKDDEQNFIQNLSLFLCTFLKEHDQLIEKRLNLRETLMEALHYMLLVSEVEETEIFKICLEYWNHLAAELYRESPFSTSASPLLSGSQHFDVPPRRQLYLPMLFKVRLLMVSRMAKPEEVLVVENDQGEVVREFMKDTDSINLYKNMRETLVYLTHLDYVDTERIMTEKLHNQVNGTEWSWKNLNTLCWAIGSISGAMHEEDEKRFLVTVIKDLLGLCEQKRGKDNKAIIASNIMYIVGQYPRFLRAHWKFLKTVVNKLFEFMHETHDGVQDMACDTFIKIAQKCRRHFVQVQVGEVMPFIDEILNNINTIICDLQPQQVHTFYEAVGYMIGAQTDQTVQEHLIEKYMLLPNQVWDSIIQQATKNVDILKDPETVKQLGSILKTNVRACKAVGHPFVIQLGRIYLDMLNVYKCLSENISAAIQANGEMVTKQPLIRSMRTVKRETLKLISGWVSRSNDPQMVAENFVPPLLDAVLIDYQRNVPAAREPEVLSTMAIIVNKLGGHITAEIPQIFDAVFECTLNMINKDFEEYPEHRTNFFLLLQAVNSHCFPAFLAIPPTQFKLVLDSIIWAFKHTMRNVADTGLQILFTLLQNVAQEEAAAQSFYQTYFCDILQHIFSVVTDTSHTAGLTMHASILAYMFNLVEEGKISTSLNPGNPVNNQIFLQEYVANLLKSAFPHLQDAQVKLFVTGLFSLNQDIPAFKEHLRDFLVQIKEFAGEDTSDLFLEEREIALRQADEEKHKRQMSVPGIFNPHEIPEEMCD

Read-outs that look alike come from different tables or passages of the source. These are yes or no findings as the source states them, for the method shown. In cells and extracts the contact can be indirect. Here binding means that the protein was enriched with, or labelled near, the bait; the list need not be complete.

Experiment [1] deals with STIM1 (full-length)-GFP (mouse STIM1, RefSeq accession NP_033313.2) (mouse) (UniProt P70302). Put plainly: affinity purification with mass spectrometry; STIM1-GFP pulled down with GFP-Trap agarose beads from 1 mg clarified HEK293 lysate (1% NP-40 buffer, 1 h at 4°C, washes with 0.15 M NaCl), on-bead digestion, label-free quantification against GFP only.
Experiment [2] shares this target. Described as above. This is another data set of the same source.

On to FANCI (from UniProt Q9NVI1 1-1328), for which the binding entry in experiment [1] is on record as “binds”.
Still for that read-out and setting: then “Fanconi anemia (FA) protein FANCD2 (from UniProt Q9BXW9 1-1451)”, with “binds”; and IPO8 (from UniProt O15397 1-1037), with “binds”.
Still for that read-out and setting: then XPO1 (from UniProt O14980 1-1071), with “binds”; and XPO5 (from UniProt Q9HAV4 1-1204), with “binds”; and “nuclear pore complex protein NUP205 (from UniProt Q92621 1-2012)”, with “binds”.

B1: XPOT (protein, UniProt O43592 1-962)
chain: MDEQALLGLNPNADSDFRQRALAYFEQLKISPDAWQVCAEALAQRTYSDDHVKFFCFQVLEHQVKYKYSELTTVQQQLIRETLISWLQAQMLNPQPEKTFIRNKAAQVFALLFVTEYLTKWPKFFFDILSVVDLNPRGVDLYLRILMAIDSELVDRDVVHTSEEARRNTLIKDTMREQCIPNLVESWYQILQNYQFTNSEVTCQCLEVVGAYVSWIDLSLIANDRFINMLLGHMSIEVLREEACDCLFEVVNKGMDPVDKMKLVESLCQVLQSAGFFSIDQEEDVDFLARFSKLVNGMGQSLIVSWSKLIKNGDIKNAQEALQAIETKVALMLQLLIHEDDDISSNIIGFCYDYLHILKQLTVLSDQQKANVEAIMLAVMKKLTYDEEYNFENEGEDEAMFVEYRKQLKLLLDRLAQVSPELLLASVRRVFSSTLQNWQTTRFMEVEVAIRLLYMLAEALPVSHGAHFSGDVSKASALQDMMRTLVTSGVSSYQHTSVTLEFFETVVRYEKFFTVEPQHIPCVLMAFLDHRGLRHSSAKVRSRTAYLFSRFVKSLNKQMNPFIEDILNRIQDLLELSPPENGHQSLLSSDDQLFIYETAGVLIVNSEYPAERKQALMRNLLTPLMEKFKILLEKLMLAQDEERQASLADCLNHAVGFASRTSKAFSNKQTVKQCGCSEVYLDCLQTFLPALSCPLQKDILRSGVRTFLHRMIICLEEEVLPFIPSASEHMLKDCEAKDLQEFIPLINQITAKFKIQVSPFLQQMFMPLLHAIFEVLLRPAEENDQSAALEKQMLRRSYFAFLQTVTGSGMSEVIANQGAENVERVLVTVIQGAVEYPDPIAQKTCFIILSKLVELWGGKDGPVGFADFVYKHIVPACFLAPLKQTFDLADAQTVLALSECAVTLKTIHLKRGPECVQYLQQEYLPSLQVAPEIIQEFCQALQQPDAKVFKNYLKVFFQRAKP
In the case of B1, in experiment [2], the binding entry was “binds”.

B2: IPO11 (protein, UniProt Q9UI26 1-975)
chain: MDLNSASTVVLQVLTQATSQDTAVLKPAEEQLKQWETQPGFYSVLLNIFTNHTLDINVRWLAVLYFKHGIDRYWRRVAPHALSEEEKTTLRAGLITNFNEPINQIATQIAVLIAKVARLDCPRQWPELIPTLIESVKVQDDLRQHRALLTFYHVTKTLASKRLAADRKLFYDLASGIYNFACSLWNHHTDTFLQEVSSGNEAAILSSLERTLLSLKVLRKLTVNGFVEPHKNMEVMGFLHGIFERLKQFLECSRSIGTDNVCRDRLEKTIILFTKVLLDFLDQHPFSFTPLIQRSLEFSVSYVFTEVGEGVTFERFIVQCMNLIKMIVKNYAYKPSKNFEDSSPETLEAHKIKMAFFTYPTLTEICRRLVSHYFLLTEEELTMWEEDPEGFTVEETGGDSWKYSLRPCTEVLFIDIFHEYNQTLTPVLLEMMQTLQGPTNVEDMNALLIKDAVYNAVGLAAYELFDSVDFDQWFKNQLLPELQVIHNRYKPLRRRVIWLIGQWISVKFKSDLRPMLYEAICNLLQDQDLVVRIETATTLKLTVDDFEFRTDQFLPYLETMFTLLFQLLQQVTECDTKMHVLHVLSCVIERVNMQIRPYVGCLVQYLPLLWKQSEEHNMLRCAILTTLIHLVQGLGADSKNLYPFLLPVIQLSTDVSQPPHVYLLEDGLELWLVTLENSPCITPELLRIFQNMSPLLELSSENLRTCFKIINGYIFLSSTEFLQTYAVGLCQSFCELLKEITTEGQVQVLKVVENALKVNPILGPQMFQPILPYVFKGIIEGERYPVVMSTYLGVMGRVLLQNTSFFSSLLNEMAHKFNQEMDQLLGNMIEMWVDRMDNITQPERRKLSALALLSLLPSDNSVIQDKFCGIINISVEGLHDVMTEDPETGTYKDCMLMSHLEEPKVTEDEEPPTEQDKRKKMLALKDPVHTVSLQQFIYEKLKAQQEMLGEQGFQSLMETVDTEIVTQLQEFLQGF
As for B2, the binding result in experiment [2] is recorded as “binds”.
